# PubChem BioAssay AID504764, Drosophila RNAi Screening Center – 2011
# Purpose: 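Genome-wide screen for regulators of Notch-driven gene expression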 (primary screen)
# Cells: Drosophila Kc167 cells
# Knock-down reagent: long dsRNA against Drosophila genes
# Time to read-out: about 5 days (4 days dsRNA, then 24 h after transfection)
# Treatment: transfection of constitutively active membrane-tethered Notch lacking the extracellular domain, read 24 h later
# Read-out: 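Firefly luciferase from an E(spl)m3 reporter with active Notch, plus control-promoter and uninduced reporter wells for normalisation; unnormalised counts, duplicate wells a and b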
# Reading the numbers: induced reporter light, run 1, well a and induced reporter light, run 1, well b: higher = more light from the Notch target reporter with active Notch; control promoter light, run 1, well a and control promoter light, run 1, well b: higher = more light from the viral control promoter (cell number, transfection, viability); uninduced reporter light, run 1, well a: higher = more light from the Notch target reporter without active Notch
# Call rule: 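Hit if the duplicate-averaged log2 ratio of induced to control-promoter light gives a plate-wise z beyond ±2, or induced to uninduced beyond ±1.8; weak-control or discordant-duplicate wells dropped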
# Calls: active = modifier hit (raised or lowered Notch signal); inactive = not a hit
# The screen tested about 22,000 reagents; this is an unselected part of those with a known target gene and a result. Over the whole deposit, 403 (1.9%) were called active. 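Unnormalised raw counts per well; ratio z-scores behind the hit calls and whether each hit raises or lowers signal are not deposited.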 Entries without a mark were called inactive. The numbers tell different reagents against one gene apart. Names joined by + are all predicted targets of the reagent. Not stated in the record: the amount of reagent.
"induced reporter light, run 1, well a","induced reporter light, run 1, well b","control promoter light, run 1, well a","control promoter light, run 1, well b","uninduced reporter light, run 1, well a",target gene,reagent
63990,79285,81460,87020,4630,ALiX,1
2.39e5,2.14e5,1.78e5,1.81e5,16495,CG6495,1
1.03e5,1.18e5,1.37e5,38565,14185,CG1271,1
1.92e5,1.85e5,2.15e5,2.26e5,17230,Rbpn-5,1
1.44e5,1.58e5,1.99e5,2.23e5,13805,Cad96Ca,1
1.66e5,1.37e5,2.09e5,2.18e5,13105,Cad96Ca,2
1.43e5,1.34e5,1.41e5,1.40e5,9445,CG7849,1
32005,23880,14480,18880,2545,Hr38,1
92205,1.31e5,71820,87840,14260,ath,1
75045,61105,80270,61355,3700,Scgbeta,1
1.43e5,1.80e5,1.76e5,1.78e5,13705,CG7382,1
1.98e5,1.82e5,1.51e5,1.38e5,13885,jigr1,1
2.32e5,1.90e5,2.42e5,1.96e5,15105,jigr1,2
1.12e5,1.11e5,1.22e5,1.14e5,10000,CG3634,1
94570,94715,84050,47070,8032,CG13694,1
2.29e5,2.65e5,2.67e5,2.87e5,15935,Clic,1
89115,94280,1.10e5,1.12e5,14155,CG15890,1
1.08e5,80730,1.20e5,98110,15160,mei-217 + mei-218,1
2.36e5,1.53e5,2.03e5,1.93e5,11585,sp3,1
1.58e5,1.50e5,1.78e5,1.81e5,13120,Cyp6a19,1
1.71e5,1.42e5,1.48e5,1.40e5,14965,Pgi,1
10955,10840,9870,10695,6950,CG13847,1
2.61e5,2.57e5,2.46e5,2.97e5,11145,CG6610,1
2.27e5,1.99e5,1.87e5,1.43e5,16240,CG34024 (retired record),1
2.30e5,2.07e5,2.58e5,2.58e5,13878,CG1907,1
2.07e5,2.12e5,1.96e5,1.89e5,15110,bs,1

5 entries from above, reformatted:
CG1271
- induced reporter light, run 1, well a: 1.03e5
- induced reporter light, run 1, well b: 1.18e5
- control promoter light, run 1, well a: 1.37e5
- control promoter light, run 1, well b: 38565
- uninduced reporter light, run 1, well a: 14185

Rbpn-5
- induced reporter light, run 1, well a: 1.92e5
- induced reporter light, run 1, well b: 1.85e5
- control promoter light, run 1, well a: 2.15e5
- control promoter light, run 1, well b: 2.26e5
- uninduced reporter light, run 1, well a: 17230

Cad96Ca #1
- induced reporter light, run 1, well a: 1.44e5
- induced reporter light, run 1, well b: 1.58e5
- control promoter light, run 1, well a: 1.99e5
- control promoter light, run 1, well b: 2.23e5
- uninduced reporter light, run 1, well a: 13805

Cad96Ca #2
- induced reporter light, run 1, well a: 1.66e5
- induced reporter light, run 1, well b: 1.37e5
- control promoter light, run 1, well a: 2.09e5
- control promoter light, run 1, well b: 2.18e5
- uninduced reporter light, run 1, well a: 13105

CG7849
- induced reporter light, run 1, well a: 1.43e5
- induced reporter light, run 1, well b: 1.34e5
- control promoter light, run 1, well a: 1.41e5
- control promoter light, run 1, well b: 1.40e5
- uninduced reporter light, run 1, well a: 9445

More reagents follow:
"induced reporter light, run 1, well a","induced reporter light, run 1, well b","control promoter light, run 1, well a","control promoter light, run 1, well b","uninduced reporter light, run 1, well a",target gene,reagent
1.10e5,93805,1.05e5,81640,9605,CG31638,1
2.06e5,1.59e5,2.40e5,2.11e5,9490,CG31638,2
1.39e5,1.17e5,1.09e5,90765,9945,obe,1
1.32e5,1.46e5,1.84e5,1.86e5,8840,Baldspot,1
1.54e5,1.34e5,1.96e5,2.17e5,9715,CG14990,1
1.62e5,1.56e5,2.19e5,2.06e5,15380,Cyp6a15Psi,1
1.80e5,1.58e5,1.59e5,1.36e5,12390,CG9132,1
1.46e5 (active),1.51e5,2.18e5,2.18e5,13920,tx (retired record),1
1.15e5,98840,1.21e5,1.71e5,7095,fs(1)Yb,1
1.42e5,1.19e5,1.22e5,1.17e5,13000,Nox,1
1.20e5,1.11e5,1.88e5,1.42e5,10595,Nox,2
1.26e5,2.15e5,1.34e5,1.57e5,22010,CG7164,1
97550,1.24e5,1.47e5,1.19e5,8705,CG31279,1
1.62e5,1.93e5,2.11e5,1.94e5,15025,CG31953 (retired record) + gkt,1
1.70e5,1.52e5,2.60e5,2.54e5,15020,nAChRalpha4,1
2.20e5,2.00e5,2.16e5,2.18e5,17760,RhoGAP92B,1
1.81e5,1.90e5,2.23e5,2.06e5,14900,RhoGAP92B,2
1.87e5,1.36e5,2.01e5,2.32e5,13875,CG31176,1
1.81e5,1.33e5,1.83e5,1.96e5,9800,CG31176,2
2.37e5,2.96e5,1.87e5,2.38e5,20610,piwi,1
1.13e5,1.10e5,1.20e5,1.12e5,10038,Sec61beta,1
2.35e5,2.13e5,2.00e5,2.23e5,18150,Dscam3,1
2.28e5,2.08e5,1.71e5,1.79e5,15842,Dscam3,2
1.18e5,1.28e5,1.22e5,1.06e5,4265,CG6638,1
